Test results reported in the supplement of paper PMC12889115.
This is one part of the list. These are raw signals, not scaled to a control.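 Primary screen: polymyxin B was added at a level permeabilizing Salmonella outer membranes while sparing inner membranes. DMSO wells, both with and without polymyxin B, established maximum growth. Plate-to-plate variation meant each plate was ranked on its own, and the lowest-OD600 compounds were selected as hits.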

System: Salmonella enterica serovar Typhimurium SL1344
Assay: bacterial growth OD600 after 18 h with compound and polymyxin B; higher = more bacterial growth (less inhibition)
Details: 50 µM, Mueller-Hinton broth

Compound | bacterial growth OD600 (polymyxin B 1 µg/mL) | bacterial growth OD600 (polymyxin B 0.75 µg/mL)
COc1ccc(NC(=O)CCC2CCCN(C(=O)c3ccoc3C)C2)cc1Cl (stereo not given) | 1.09 | –
Cc1cccc(CN2CCOC(CCCc3ccccc3)C2)n1 (stereo not given) | – | 0.892
CCN1CCN(C(=O)c2ccc(N3CCC(NCc4ccc(F)c(F)c4)CC3)cc2)CC1 | – | 0.943
COc1cccc([C@@H](C)NC(=O)C2CCN(c3nc(C)c4ccc(S(C)(=O)=O)cc4n3)CC2)c1 | – | 0.983
C=C(C)CN(CC)C(=O)c1ccc(OC2CCN(C3CCCC3)CC2)c(OC)c1 | – | 0.855
C=CCN(CC=C)C(=O)C1CCCN(C2CCN(C3Cc4ccccc4C3)CC2)C1 (stereo not given) | 0.866 | –
O=C(NCC1CCCN(C2CCCCC2)C1)C1(c2ccc(Cl)cc2)CC1 (stereo not given) | 0.921 | –
CN(CCOc1ccccc1)Cc1nc(-c2ccccc2)no1 | 1.06 | –
O[C@H]1CN(Cc2ccc(-c3ccc(Cl)cc3)o2)C[C@@H]1N1CCOCC1 | 0.003 | –
COc1ccc(OC2CCN(C3CCCC3)CC2)c(C(=O)N2CCCCC2CCCO)c1 (stereo not given) | 1.18 | –
COc1ccc(CNC(=O)CCC2CCCN(CC3CCCC3)C2)c(OC)c1 (stereo not given) | 0.939 | –
CCN1CCCC1CNC(=O)CCC1CCN(Cc2cccc(SC)c2)CC1 (stereo not given) | 0.754 | –
CCOC(=O)C1(CCOc2ccccc2)CCN(S(=O)(=O)c2ccccc2F)CC1 | 0.683 | –
CN(CC1CCCN(CCc2ccccc2F)C1)C(=O)CCc1ccccn1 (stereo not given) | 1.11 | –
CCCCC1CN(CCC(=O)NC(c2cccnc2)C(F)(F)F)Cc2ccccc2O1 (stereo not given) | – | 0.725
Cc1cc(F)ccc1NC(=O)CCC1CCCN(C(=O)C2CCCC2)C1 (stereo not given) | 0.834 | –
CC#CCN1C(=O)NC(CCCc2ccccc2)(C2CCN(C(=O)c3csnn3)CC2)C1=O (stereo not given) | – | 0.03
COc1cccc(CC(C2CCN(C(=O)CCC3CCCCC3)CC2)N(C)C(=O)c2cccnc2)c1 (stereo not given) | – | 0.007
Oc1ccc(CN2CCC(O)(Cc3cc(-c4ccccc4)no3)CC2)cc1Cl | 0.956 | –
Cc1ccccc1CC1(CO)CCCN(Cc2c(C)nn(C)c2Cl)C1 (stereo not given) | 0.926 | –
COc1ccc2c(c1)SC(c1ccc(F)c(F)c1)CCN2CC1CC1 (stereo not given) | – | 0.002
COc1ccc(CN2CCC(CO)(CCCc3ccccc3)CC2)c(OC)c1 | 0.877 | –
CCCn1c(C)c(CC(=O)NC(C)Cn2cccn2)c2c1CC(C)(C)CC2=O (stereo not given) | 0.636 | –
Cc1cc(C)nc(CNc2ccc(C(=O)NCCC3CCCCN3C)cn2)n1 (stereo not given) | – | 0.795
CCc1ccc(CN2CC[C@@H](N3CCN(c4ccccc4F)CC3)[C@H](O)C2)o1 | 0.887 | –
O=C1O[C@@H]2CN(c3cnccn3)C[C@@H]2N1C1CCCC1 | – | 0.874
Cc1ncc(CN2CCCC(C(=O)Nc3ccc(-c4cscn4)cc3)C2)n1C (stereo not given) | – | 0.815
COCc1ccc(C(=O)Nc2ccc(-c3nc(CNC(=O)c4cnsn4)c(C)o3)cc2)o1 | – | 0.858
CN1N=C(C(=O)N2CCCC(CCc3cccc(F)c3)C2)CCC1=O (stereo not given) | – | 0.767
CCOC(=O)C1(Cc2ccccc2C)CCCN(S(=O)(=O)c2c(C)nn(C)c2C)C1 (stereo not given) | 0.737 | –

Entries of single compounds, looked up by structure.
C=C(C)CN(CC)C(=O)c1ccc(OC2CCN(C3CCCC3)CC2)c(OC)c1 as listed: bacterial growth OD600 (polymyxin B 0.75 µg/mL): 0.855
CC#CCN1C(=O)NC(CCCc2ccccc2)(C2CCN(C(=O)c3csnn3)CC2)C1=O (stereo not given) as listed: bacterial growth OD600 (polymyxin B 0.75 µg/mL): 0.03
